PubChem BioAssay AID1224826, NIAID | 2016
Shown is an unselected part of about 17,000 reagents. Of all reagents, about 1,110 (6.6%) were called active. 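Active means lowered or raised reporter signal; replicate intensities are raw and not normalised per plate.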 Entries without a mark were called inactive. A reagent listed more than once was tested more than once; the source does not tell the runs apart. Not all columns of the deposit are shown.

Purpose: 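Knock-downs that raise or lower Tnf reporter signal after endotoxin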 (primary screen)
System: RAW264.7 G9 macrophages from mouse bearing reporters for p65 (GFP) and the Tnf promoter (mCherry)
Reagent: siRNA pool against mouse genes, 100 nM
Time to read-out: 16 h of LPS stimulation, after 2 days of siRNA transfection
Treatment: bacterial lipopolysaccharide (Salmonella minnesota R595), 10 ng/ml
Read-out: 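Imaged Tnf reporter mCherry in nuclei, minus background, normalised per plate to the median and expressed as robust z-scores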
Reading the numbers: Tnf reporter robust z-score: higher = stronger Tnf promoter reporter signal after LPS
Hit rule: 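a well counts as active at a score of -1.3 or below (Tlr4 knock-down control median) or above 3 (raised signal); controls and wells holding fewer than 50 cells are excluded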
Meaning of the calls: active = Tnf reporter clearly lowered or raised; inactive = no clear change in Tnf reporter

gene symbol,Tnf reporter robust z-score,fewer than 50 cells in well
Rps15 (ribosomal protein S15),,fewer than 50 cells per well; well left out of calls
Phf7 (PHD finger protein 7),-1.48 (active),enough cells in well
Gigyf1 (GRB10 interacting GYF protein 1),1.85,enough cells in well
Slc38a5,-0.6,enough cells in well
Stoml1 (stomatin-like 1),-0.11,enough cells in well
"Perp (PERP, TP53 apoptosis effector)",-1.07,enough cells in well
Msantd2 (Myb/SANT-like DNA-binding domain containing 2),-0.03,enough cells in well
AI597479 (expressed sequence AI597479),0.63,enough cells in well
Gm9975 (predicted gene 9975),1.11,enough cells in well
"Irag1 (inositol 1,4,5-triphosphate receptor associated 1)",-0.2,enough cells in well
Zfp454 (zinc finger protein 454),2.08,enough cells in well
Acer3 (alkaline ceramidase 3),-0.74,enough cells in well
Or8k36 (olfactory receptor family 8 subfamily K member 36),0.09,enough cells in well
Nkx3-1 (NK3 homeobox 1),0.77,enough cells in well
Fbn1 (fibrillin 1),-0.05,enough cells in well
"Atp6v0d2 (ATPase, H+ transporting, lysosomal V0 subunit D2)",1.01,enough cells in well
Or9s14 (olfactory receptor family 9 subfamily S member 14),-1.24,enough cells in well
Clmn (calmin),0.7,enough cells in well
Vmn1r192 (vomeronasal 1 receptor 192),1.84,enough cells in well
Vps33a (VPS33A CORVET/HOPS core subunit),-0.78,enough cells in well
"Akr1c20 (aldo-keto reductase family 1, member C20)",0.77,enough cells in well
Il4i1 (interleukin 4 induced 1),1.06,enough cells in well
Nkiras2 (NFKB inhibitor interacting Ras-like protein 2),-1.01,enough cells in well
Snap29 (synaptosomal-associated protein 29),1.07,enough cells in well
Rsph3a (radial spoke 3A homolog (Chlamydomonas)),,fewer than 50 cells per well; well left out of calls
Cyth1 (cytohesin 1),0.07,enough cells in well
Ttc22 (tetratricopeptide repeat domain 22),,fewer than 50 cells per well; well left out of calls
Srpk3 (serine/arginine-rich protein specific kinase 3),-0.4,enough cells in well
Gpr173 (G-protein coupled receptor 173),-0.18,enough cells in well
Gpr173 (G-protein coupled receptor 173),0.55,enough cells in well
Map2k1 (mitogen-activated protein kinase kinase 1),-0.87,enough cells in well
Bmp15 (bone morphogenetic protein 15),1.24,enough cells in well
Usp11 (ubiquitin specific peptidase 11),-0.35,enough cells in well
Eya4 (EYA transcriptional coactivator and phosphatase 4),-0.18,enough cells in well

Reformatted: 7 of the entries above.
Il4i1 (interleukin 4 induced 1): Tnf reporter robust z-score = 1.06; fewer than 50 cells in well = enough cells in well
Nkiras2 (NFKB inhibitor interacting Ras-like protein 2): Tnf reporter robust z-score = -1.01; fewer than 50 cells in well = enough cells in well
Snap29 (synaptosomal-associated protein 29): Tnf reporter robust z-score = 1.07; fewer than 50 cells in well = enough cells in well
Rsph3a (radial spoke 3A homolog (Chlamydomonas)): fewer than 50 cells in well = fewer than 50 cells per well; well left out of calls
Cyth1 (cytohesin 1): Tnf reporter robust z-score = 0.07; fewer than 50 cells in well = enough cells in well
Ttc22 (tetratricopeptide repeat domain 22): fewer than 50 cells in well = fewer than 50 cells per well; well left out of calls
Srpk3 (serine/arginine-rich protein specific kinase 3): Tnf reporter robust z-score = -0.4; fewer than 50 cells in well = enough cells in well

More results follow.
gene symbol,Tnf reporter robust z-score,fewer than 50 cells in well
Cldn16 (claudin 16),-1.29,enough cells in well
Arhgap44 (Rho GTPase activating protein 44),-0.4,enough cells in well
AA986860 (expressed sequence AA986860),-0.33,enough cells in well
Krt4 (keratin 4),-1.07,enough cells in well
Apoc2 (apolipoprotein C2),0.77,enough cells in well
Tmem144 (transmembrane protein 144),2.49,enough cells in well
Pip (prolactin induced protein),1.63,enough cells in well
Mboat7 (membrane bound O-acyltransferase domain containing 7),-0.26,enough cells in well
Calb1 (calbindin 1),0.31,enough cells in well
Map3k14 (mitogen-activated protein kinase kinase kinase 14),-0.09,enough cells in well
Ube2n (ubiquitin-conjugating enzyme E2N),,fewer than 50 cells per well; well left out of calls
Gemin7 (gem nuclear organelle associated protein 7),-1.19,enough cells in well
Ldhal6b (lactate dehydrogenase A-like 6B),-0.56,enough cells in well
Mbip (MAP3K12 binding inhibitory protein 1),-0.86,enough cells in well
Rhbdl2 (rhomboid like 2),-0.87,enough cells in well
"Aldh1a1 (aldehyde dehydrogenase family 1, subfamily A1)",-0.55,enough cells in well
Nkain1 (Na+/K+ transporting ATPase interacting 1),,fewer than 50 cells per well; well left out of calls
Adamtsl1 (ADAMTS-like 1),0.21,enough cells in well
Dlx2 (distal-less homeobox 2),0.08,enough cells in well
Pigyl,0.59,enough cells in well
Plscr1 (phospholipid scramblase 1),-0.64,enough cells in well
"Rab10 (RAB10, member RAS oncogene family)",0.21,enough cells in well
Zwint (ZW10 interactor),-0.5,enough cells in well
"Pip4k2c (phosphatidylinositol-5-phosphate 4-kinase, type II, gamma)",-1.09,enough cells in well
